# Results: patent publication US20140187784A1, “RADIOACTIVE QUINOLINONE DERIVATIVE AND PHARMACEUTICAL DRUG COMPRISING THE SAME” (Nihon Medi-Physics Co., Ltd., priority 2012, published 2014)
# At least one compound was matched to its structure with a doubt left.
# Experiment: Pharmacokinetic and distribution experiment (radioactivity in blood and excised organs after tail vein injection)
# Type: in vivo
# Details: ddy mice, 18.5 kBq (0.5 μCi), 120 min
# Description: The HPLC fraction of [^125I]PAY15 obtained in Example 3 was concentrated and then diluted with saline. The resulting solution was used in administration. 100 μL of the solution (18.5 kBq (0.5 μCi)) was injected to the tail vein of each of five ddy mice (6 weeks old). Five minutes later, each mouse was decapitated, and blood was collected. Then, organs (adrenal gland, pancreas, heart, lung, stomach, small intestine, large intestine, liver, spleen, kidney, and thyroid gland) were excised. After measurement of their weights, the radioactivities of blood and each excised organ were measured. Also, the point in time when each mouse was decapitated was changed to 5, 15, 30, 60, and 120 minutes later to perform similar operation.
# The HPLC fraction of [^125I]PAY21 obtained in Example 6 was concentrated and then diluted with saline. The resulting solution was used in administration to perform the same operation as in Evaluation 1.
# [^18F]PAY27 obtained in Example 10 was diluted with saline. The resulting solution was used in administration. […] After measurement of their weights, the radioactivities of blood and each excised organ were measured. […]
# [^18F]PAY54 obtained in Example 13 was diluted with saline. […] After measurement of their weights, the radioactivities of blood and each excised organ were measured. […]
structure (smiles),measurement,value
"O=C1CCc2cc(-c3cncc([125I])c3)cc3c2N1CCC3 [[^125I]PAY15, 9-(5-[^125I]iodopyridin-3-yl)-1,2,6,7-tetrahydro-5H-pyrido[3,2,1-ij]quinolin-3-one]","Radioactivity Distribution, Spleen",1.4 ± 0 2 % dose/g
